Some results were stated once for a whole list of compounds, not compound by compound. Some ranges recur; such a range may be that of the whole group of compounds.
Target: T1, full length dynamin I (Ovis aries, UniProt A0ACI6NZN1)
T1 sequence (A0ACI6NZN1 1-864): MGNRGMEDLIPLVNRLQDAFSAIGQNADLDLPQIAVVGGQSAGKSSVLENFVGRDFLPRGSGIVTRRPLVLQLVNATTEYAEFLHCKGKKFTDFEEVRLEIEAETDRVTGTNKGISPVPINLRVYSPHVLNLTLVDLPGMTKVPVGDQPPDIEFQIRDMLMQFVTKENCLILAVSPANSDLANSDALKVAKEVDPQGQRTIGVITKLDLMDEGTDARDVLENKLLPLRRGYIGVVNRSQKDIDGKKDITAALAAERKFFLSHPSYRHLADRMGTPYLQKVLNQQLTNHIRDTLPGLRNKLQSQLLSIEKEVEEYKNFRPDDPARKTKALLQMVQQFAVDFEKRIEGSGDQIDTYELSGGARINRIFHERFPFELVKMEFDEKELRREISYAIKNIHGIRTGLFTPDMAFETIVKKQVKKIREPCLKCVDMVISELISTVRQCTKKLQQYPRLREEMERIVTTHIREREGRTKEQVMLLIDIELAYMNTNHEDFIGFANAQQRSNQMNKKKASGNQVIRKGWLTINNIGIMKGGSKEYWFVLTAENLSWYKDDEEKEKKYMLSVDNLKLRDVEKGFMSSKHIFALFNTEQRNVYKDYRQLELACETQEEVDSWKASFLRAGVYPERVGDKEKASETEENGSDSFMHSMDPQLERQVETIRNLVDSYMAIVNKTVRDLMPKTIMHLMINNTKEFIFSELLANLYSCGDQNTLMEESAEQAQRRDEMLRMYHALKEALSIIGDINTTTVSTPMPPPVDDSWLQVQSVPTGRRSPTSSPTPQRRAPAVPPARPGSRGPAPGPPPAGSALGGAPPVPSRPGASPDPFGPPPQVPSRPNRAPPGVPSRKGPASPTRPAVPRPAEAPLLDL
Assay: Basal dynamin GTPase activity in the absence of PS liposomes or other template (ring stabilizer activity)
Format: biochemical, sheep
Conditions: read-out: stimulation values (EC50) of basal dynamin GTPase activity, full length dynamin I 200 nM, FIG. 4
Description: The compounds were present at the indicated concentrations and the concentration causing half-maximal stimulation is shown as the EC50.
Dynamin I (50 nM) GTPase stimulation was performed in the absence of the detergent Tween-80 (and in the absence of any known activators such as PS liposomes, nanotubes or microtubules). […] The GTPase activity of dynamin I (dynI; 200 nM) was measured in the absence of lipid activators (and in the presence of standard Tween-80 at 0.06%).
A compound (whether a dynamin inhibitor or not) can be identified as a dynamin ring stabilizer by assaying for its capacity to promote accumulation of dynamin rings and/or to inhibit disassembly of dynamin rings. […] GTPase activity of dynamin or dynamin rings can be determined by any conventionally known method (e.g., see Quan and Robinson. 2005). Such conditions include: (a) the absence of a helix assembly template such as liposomes, microtubules or lipid nanotubes, and (b) higher concentrations of dynamin than normally required for detecting template stimulated activity, typically 50-500 nM dynamin instead of 1-20 nM. Thus, ring stabilizer activity can be identified by the ability to stimulate the GTPase activity of full length dynamin in the absence of other stimulatory factors (such as PS liposomes, microtubules or nanotubes). […]

| Structure (SMILES) | EC50 |
| --- | --- |
| N=c1oc2c(O)c(O)ccc2cc1C(=O)NCCCNC(=O)c1cc2ccc(O)c(O)c2oc1=N [Iminodyn 22] | 1 to 20 µM |
| N=c1oc2cc(O)c(O)cc2cc1C(=O)NCCCNC(=O)c1cc2cc(O)c(O)cc2oc1=N [Iminodyn 23] | 1 to 20 µM |
